According to the supplement of paper PMC12764529:
± gives the half width of the 95% confidence interval. The two proteases of the assay disagree for many of these sequences.

Experiments:
[1] = folding stability dG unfold from chymotrypsin proteolysis; higher = more stable
In short: (§1)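 K50 was inferred by Bayesian fitting of sequencing counts obtained after protease digestion of designed mini-proteins. Unfolding free energy was derived by comparison with a sequence-predicted unfolded-state K50 and a shared folded-state K50, for each protease or both combined. The mini-proteins were under 80 residues, had no cysteine, were carried in a PA-tagged cDNA display construct, and were kept only if AlphaFold2 dimer inter-PAE exceeded 15.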

[2] = folding stability dG unfold (combined trypsin and chymotrypsin); higher = more stable
In short: as §1

[3] = folding stability dG unfold from trypsin proteolysis; higher = more stable
Method: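 Folding stability of de novo designed mini-proteins (<80 aa, no Cys; designed by TrROS, TrMRF, ProteinMPNN and the joint model) was measured by cDNA display proteolysis with trypsin and chymotrypsin. Each protease was used at 11 concentrations in a threefold dilution series plus a no-protease condition. K50 was inferred by Bayesian fitting of sequencing counts, and dG unfold was derived against a sequence-predicted unfolded-state K50 (Tsuboyama et al. method). Sequences shown include variable-length N-terminal GS-type padding (SAGGSAGG...) inside a display construct carrying a PA tag. Rows were kept only if the AF2 dimer inter-PAE was >15, to exclude likely homo-oligomers.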

SAGGSAGGKITITVEKNKNGKLTVRIEVEVDGKTYEIEIEADSLEEALEAAKKLGLKVKKVEIVSAGGSAGG [r6_40_TrROS_Hall]
folding stability dG unfold [1]: 3.69 ± 0.087 kcal/mol
folding stability dG unfold [2]: 3.25 ± 0.19 kcal/mol
folding stability dG unfold [3]: 1.61 ± 0.078 kcal/mol

SAGGSSMARVVGYRPDSATVEIVFPGTGKVTTVPFTGTLEEIKERLSALGKELGLPIDFEFLSPELSAGGSA [r2_161_JUSTAS]
folding stability dG unfold [1]: 2.29 ± 0.022 kcal/mol
folding stability dG unfold [2]: 1.69 ± 0.1 kcal/mol
folding stability dG unfold [3]: 0.204 ± 0.086 kcal/mol

SAGGSAGGSLKPFPIEDITVQPRRNPDGNRYYQVSIRIKGPGRPINIPFPMDNPKKFLEDIIKSAGGSAGGS [r20_238_TrROS]
folding stability dG unfold [1]: 0.143 ± 0.12 kcal/mol
folding stability dG unfold [2]: 0.285 ± 0.17 kcal/mol
folding stability dG unfold [3]: 0.519 ± 0.081 kcal/mol

SAGGSAGGSAGGEPIPTKTIEVDEATGTVTVTVTFPPPNETVTVTRPAPPDVSLEEVLASAGGSAGGSAGGS [r10_676_JUSTAS]
folding stability dG unfold [1]: 1.58 ± 0.15 kcal/mol
folding stability dG unfold [2]: 1.59 ± 0.15 kcal/mol
folding stability dG unfold [3]: 1.07 ± 0.17 kcal/mol

SAGGSAMKFKIVSVEYDKETKTIRVKVEVDGKLVEIEIKIEKPPPVKIEIEAPSEEEKKKLEELLKSAGGSA [r15_42_TrROS_Hall]
folding stability dG unfold [1]: 4.15 ± 0.19 kcal/mol
folding stability dG unfold [2]: 3.1 ± 0.38 kcal/mol
folding stability dG unfold [3]: 1.35 ± 0.44 kcal/mol

SAGGAPNWKIEKIEIEYPGRKIEVWRHDNMWFIHIPAPPGYPIRIKIKIEPDNGETQTQERTFPIPPPSAGG [r13_191_TrROS]
folding stability dG unfold [1]: 2.83 ± 0.073 kcal/mol
folding stability dG unfold [2]: 2.37 ± 0.35 kcal/mol
folding stability dG unfold [3]: 1.75 ± 0.061 kcal/mol

SAGGSAGGSAGDEKYTLTVTIPVPKNAPVLVGAEKGYEVIDLNPDAPVEEGYITVKVEFGSAGGSAGGSAGG [r11_701_TrMRF]
folding stability dG unfold [1]: -0.833 ± 0.14 kcal/mol
folding stability dG unfold [2]: -0.391 ± 0.15 kcal/mol
folding stability dG unfold [3]: -0.376 ± 0.086 kcal/mol

SAGMIEILELPPNKAIVKIYDPKTGKFEIIEIDFGGKDGKPLSLEELIEKIKKLAKELYPDLEINVTPLSAG [r5_293_TrMRF]
folding stability dG unfold [1]: 1.98 ± 0.063 kcal/mol
folding stability dG unfold [2]: 2.61 ± 0.17 kcal/mol
folding stability dG unfold [3]: 3.28 ± 0.26 kcal/mol

SKTITLKPGQTLTITLTLTFPKDVKKVTLKVEITYNGKKYTETKTFTTKDGKTVTITLTIKLPPGAEIKISA [r9_973_TrROS_Hall]
folding stability dG unfold [1]: 5.34 ± 0.17 kcal/mol
folding stability dG unfold [2]: 5.09 ± 0.48 kcal/mol
folding stability dG unfold [3]: 2.84 ± 0.2 kcal/mol

SAGGSPISLEVSTSTLPDGTLRVTTTATSPDSSRSYTVTLDFPPSQPEEIPARAAAEAAAIAADPAVASAGG [r13_968_JUSTAS]
folding stability dG unfold [1]: 1.35 ± 0.058 kcal/mol
folding stability dG unfold [2]: 0.907 ± 0.086 kcal/mol
folding stability dG unfold [3]: -0.552 ± 0.19 kcal/mol

SAGGKIIEIEAPPADPLKTAKAIADEILAEAKKKGKKVDYTVIITFPDGSKYVITIDGNGKILKIDPVSAGG [r13_965_TrMRF]
folding stability dG unfold [1]: 3.26 ± 0.087 kcal/mol
folding stability dG unfold [2]: 2.95 ± 0.15 kcal/mol
folding stability dG unfold [3]: 1.05 ± 0.063 kcal/mol

SAGGGIKELLKKLPGIKKVEVKDDSVTITVEVDGKLYKIEIKVEKVKKKDGKEIKKVEIKIEEVELPSAGGS [r16_65_TrROS_Hall]
folding stability dG unfold [1]: 4.67 ± 0.21 kcal/mol
folding stability dG unfold [2]: 4.55 ± 0.28 kcal/mol
folding stability dG unfold [3]: 2.22 ± 0.16 kcal/mol

SAGGSKKLKPGETKEIEIDGKIYRIVVEDGKIHIYAKSAEELKEFLKKLPPNLKIVKVEEVSKEELSAGGSA [r2_418_TrROS_Hall]
folding stability dG unfold [1]: 2.76 ± 0.12 kcal/mol
folding stability dG unfold [2]: 2.22 ± 0.21 kcal/mol
folding stability dG unfold [3]: 0.354 ± 0.14 kcal/mol

SAGGSAGGSAGGKILVITAKIEDIPEIIEAAKKLGIDSVIIDIPETKEKIIITKDSVKLISAGGSAGGSAGG [r7_564_TrMRF]
folding stability dG unfold [1]: 1.76 ± 0.089 kcal/mol
folding stability dG unfold [2]: 1.63 ± 0.14 kcal/mol
folding stability dG unfold [3]: 1.54 ± 0.057 kcal/mol

SAIIKIKTKGKEEIKILLKEIAKKLGFPELTPEEALKALKKVNIKILSIKKDPENPEIYYVEIEIKPPESAG [r14_678_TrMRF]
folding stability dG unfold [1]: 4.33 ± 0.07 kcal/mol
folding stability dG unfold [2]: 4.01 ± 0.11 kcal/mol
folding stability dG unfold [3]: 2.31 ± 0.076 kcal/mol

SAGGSAGGMKIEPIAEDEDYIVVRVEPDLPELLEELGLEVVGVEEEGDYVIVVVKVPPEVREKFSAGGSAGG [r6_108_TrMRF]
folding stability dG unfold [1]: -0.0352 ± 0.11 kcal/mol
folding stability dG unfold [2]: 0.336 ± 0.11 kcal/mol
folding stability dG unfold [3]: 0.649 ± 0.022 kcal/mol

SAGGMEPVSPEEAAEALRAELLAAHPDLEVEVTVTTTPLPTGALRVDVTFRFYAPPPPVGERRHVVEVPSAG [r5_696_JUSTAS]
folding stability dG unfold [1]: 2.498 ± 0.023 kcal/mol
folding stability dG unfold [2]: 1.77 ± 0.059 kcal/mol
folding stability dG unfold [3]: -0.402 ± 0.07 kcal/mol

SAGGSAGGSAGGMRTVTITRVRADGSPVETSTVEVPESVSTVTVTDPADGLTAEVTLSASAGGSAGGSAGGS [r10_970_JUSTAS]
folding stability dG unfold [1]: 1.03 ± 0.046 kcal/mol
folding stability dG unfold [2]: 0.691 ± 0.046 kcal/mol
folding stability dG unfold [3]: -1.02 ± 0.38 kcal/mol

SAGGELVIKNPKTNKYFKVKPIEEITIKEYKFDKNGKLVEEKEIKISIFEIENEDGSKYTIKSIEIKSAGGS [r8_214_TrROS_Hall]
folding stability dG unfold [1]: 3.75 ± 0.086 kcal/mol
folding stability dG unfold [2]: 3.51 ± 0.4 kcal/mol
folding stability dG unfold [3]: 1.49 ± 0.11 kcal/mol

SAGGSAGGSAGGKIKVEVKKNKKTNKYTVTITVDGKKITLTFKSKEDAEEALKKLFPNLKSAGGSAGGSAGG [r7_841_TrROS_Hall]
folding stability dG unfold [1]: 4.7 ± 0.084 kcal/mol
folding stability dG unfold [2]: 4.32 ± 0.085 kcal/mol
folding stability dG unfold [3]: 2.68 ± 0.11 kcal/mol

SAGGSAGGSAGMTRTVTFTITDPNSSNTTTITVPTTSEQDVAAAKAALKAANPNVTITLTSAGGSAGGSAGG [r11_233_JUSTAS]
folding stability dG unfold [1]: 0.954 ± 0.092 kcal/mol
folding stability dG unfold [2]: 0.718 ± 0.076 kcal/mol
folding stability dG unfold [3]: 0.3 ± 0.12 kcal/mol

SAGGSAGGSAKKIKIKTKDGKEIEVEIVKYDPEKKEVYIYNKKTGKIYKFSKEDLKKILEELSAGGSAGGSA [r18_161_TrROS_Hall]
folding stability dG unfold [1]: 4.62 ± 0.12 kcal/mol
folding stability dG unfold [2]: 4.08 ± 0.36 kcal/mol
folding stability dG unfold [3]: 2.47 ± 0.088 kcal/mol

SAGPDLPFDVRLVEVRDMEVRVTPDGRLVVTLPMVGRHPSGFLVRRTIRFEPETDRVEATGEVRPLDESAGG [r19_320_TrMRF]
folding stability dG unfold [1]: 0.804 ± 0.087 kcal/mol
folding stability dG unfold [2]: 0.774 ± 0.059 kcal/mol
folding stability dG unfold [3]: 0.581 ± 0.062 kcal/mol

SAGGSAGGAGPPLLATVTLTLDLDVPLEEDDEITVPVPFPDGSEATITALPEENTLVVTFRVTGSAGGSAGG [r6_482_TrMRF]
folding stability dG unfold [1]: 1.39 ± 0.079 kcal/mol
folding stability dG unfold [2]: 0.673 ± 0.17 kcal/mol
folding stability dG unfold [3]: -1.51 ± 0.62 kcal/mol

SAGGSAGGSAAAAPAAATTTTTETRTETRVEPRLEVTITVTADSEEERLAALRLAKELLEAASAGGSAGGSA [r18_308_TrROS_Hall]
folding stability dG unfold [1]: 1.08 ± 0.059 kcal/mol
folding stability dG unfold [2]: 0.693 ± 0.051 kcal/mol
folding stability dG unfold [3]: -0.921 ± 0.53 kcal/mol

SAGEVKIEIKDGTITITVPPGVSEEELKELLKKLFPGYKITKIEIEKLPDGSLKITVHIEKLPPKPEKKSAG [r5_110_TrROS_Hall]
folding stability dG unfold [1]: 2.77 ± 0.12 kcal/mol
folding stability dG unfold [2]: 2.26 ± 0.086 kcal/mol
folding stability dG unfold [3]: 0.444 ± 0.1 kcal/mol

SAGGSAGGSALAEALAKALGIPAEVEITSDIEPDRPTVFSLRVREPGGGEELELPVVLPPGASAGGSAGGSA [r18_313_TrMRF]
folding stability dG unfold [1]: 3.27 ± 0.052 kcal/mol
folding stability dG unfold [2]: 2.45 ± 0.18 kcal/mol
folding stability dG unfold [3]: 0.819 ± 0.099 kcal/mol

SAMPVAVIPIDPVSGKLTVTVFDPADPRRAVTVDIPLAAVEAAVGKPLSPEEIAALLLEKGIDVVLIGPSAG [r14_809_TrMRF]
folding stability dG unfold [1]: 1.96 ± 0.021 kcal/mol
folding stability dG unfold [2]: 1.57 ± 0.1 kcal/mol
folding stability dG unfold [3]: -0.0879 ± 0.32 kcal/mol

SAGMININVTYRPNKNGQYWVTVKLSIMEPRPDPDGKQYMEMRQLEIEVPFKTPSDAPRAVKEIIKKISAGG [r19_218_TrROS]
folding stability dG unfold [1]: 4.32 ± 0.24 kcal/mol
folding stability dG unfold [2]: 3.59 ± 0.34 kcal/mol
folding stability dG unfold [3]: 1.79 ± 0.22 kcal/mol

SAGGSKKPKIEIEFDKKNKTIKIKINGKEFEFKIKKIEIEKIGDGYYKITIELEDGSKYEFIFKIKSAGGSA [r2_268_TrROS_Hall]
folding stability dG unfold [1]: 5.38 ± 0.31 kcal/mol
folding stability dG unfold [2]: 4.73 ± 0.51 kcal/mol
folding stability dG unfold [3]: 3.06 ± 0.21 kcal/mol

SAGGSAGGSAGGKPPPKTLTVFILNEDGELTVFKVEEKDGKLKIEVEKMTLEELKKLKPSAGGSAGGSAGGS [r10_257_TrROS_Hall]
folding stability dG unfold [1]: 4.31 ± 0.11 kcal/mol
folding stability dG unfold [2]: 3.77 ± 0.29 kcal/mol
folding stability dG unfold [3]: 1.36 ± 0.14 kcal/mol
